Assay results published in paper PMC9360443.

Protein sequences, listed by entry. Tags and fused reporters are not part of them. Lines headed by an entry give the natural chain unless they say otherwise; changes in a name come on top.
UniProt O95835: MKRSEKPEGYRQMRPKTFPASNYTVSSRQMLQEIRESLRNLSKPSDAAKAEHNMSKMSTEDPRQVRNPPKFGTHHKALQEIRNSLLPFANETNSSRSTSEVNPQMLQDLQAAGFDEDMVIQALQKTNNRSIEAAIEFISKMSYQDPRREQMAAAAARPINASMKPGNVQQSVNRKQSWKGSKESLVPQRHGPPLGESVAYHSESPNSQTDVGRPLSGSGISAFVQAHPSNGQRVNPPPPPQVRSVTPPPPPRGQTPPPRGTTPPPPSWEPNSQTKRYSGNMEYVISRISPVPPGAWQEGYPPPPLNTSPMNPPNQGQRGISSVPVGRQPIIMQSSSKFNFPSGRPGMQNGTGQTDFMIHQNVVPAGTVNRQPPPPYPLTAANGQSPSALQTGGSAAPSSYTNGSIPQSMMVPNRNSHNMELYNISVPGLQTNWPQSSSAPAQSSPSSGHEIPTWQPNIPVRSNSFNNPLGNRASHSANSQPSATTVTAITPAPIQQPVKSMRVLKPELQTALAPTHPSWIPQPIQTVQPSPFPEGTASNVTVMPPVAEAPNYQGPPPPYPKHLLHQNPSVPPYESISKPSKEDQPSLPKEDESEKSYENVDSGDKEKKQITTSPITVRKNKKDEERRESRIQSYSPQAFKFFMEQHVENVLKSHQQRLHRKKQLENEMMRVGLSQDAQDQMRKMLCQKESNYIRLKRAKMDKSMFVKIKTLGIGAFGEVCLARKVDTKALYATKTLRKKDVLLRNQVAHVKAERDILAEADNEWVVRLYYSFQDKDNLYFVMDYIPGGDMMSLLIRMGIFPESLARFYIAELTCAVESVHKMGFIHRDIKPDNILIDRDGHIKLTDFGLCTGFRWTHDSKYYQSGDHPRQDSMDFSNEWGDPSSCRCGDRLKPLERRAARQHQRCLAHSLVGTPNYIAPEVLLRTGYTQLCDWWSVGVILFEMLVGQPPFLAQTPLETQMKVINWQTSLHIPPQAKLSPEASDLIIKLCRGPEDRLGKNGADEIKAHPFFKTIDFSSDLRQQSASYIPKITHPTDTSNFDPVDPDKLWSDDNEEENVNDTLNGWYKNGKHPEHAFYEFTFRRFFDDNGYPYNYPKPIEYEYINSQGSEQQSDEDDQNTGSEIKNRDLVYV
UniProt Q9NR28: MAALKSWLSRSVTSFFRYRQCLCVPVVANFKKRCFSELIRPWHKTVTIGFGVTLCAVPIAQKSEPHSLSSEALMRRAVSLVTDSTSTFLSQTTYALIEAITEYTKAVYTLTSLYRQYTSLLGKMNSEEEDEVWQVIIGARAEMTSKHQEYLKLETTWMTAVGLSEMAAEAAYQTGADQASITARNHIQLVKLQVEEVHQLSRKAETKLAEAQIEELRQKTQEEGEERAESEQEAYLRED
UniProt O00165: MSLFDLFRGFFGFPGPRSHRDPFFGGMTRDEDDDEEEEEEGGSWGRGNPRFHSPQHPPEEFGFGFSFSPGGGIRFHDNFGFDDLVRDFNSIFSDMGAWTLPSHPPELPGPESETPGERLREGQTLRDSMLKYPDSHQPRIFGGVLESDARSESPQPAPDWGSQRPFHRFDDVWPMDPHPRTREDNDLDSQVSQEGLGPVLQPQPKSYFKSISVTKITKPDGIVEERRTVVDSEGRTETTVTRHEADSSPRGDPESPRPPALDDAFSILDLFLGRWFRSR
UniProt Q9NR09: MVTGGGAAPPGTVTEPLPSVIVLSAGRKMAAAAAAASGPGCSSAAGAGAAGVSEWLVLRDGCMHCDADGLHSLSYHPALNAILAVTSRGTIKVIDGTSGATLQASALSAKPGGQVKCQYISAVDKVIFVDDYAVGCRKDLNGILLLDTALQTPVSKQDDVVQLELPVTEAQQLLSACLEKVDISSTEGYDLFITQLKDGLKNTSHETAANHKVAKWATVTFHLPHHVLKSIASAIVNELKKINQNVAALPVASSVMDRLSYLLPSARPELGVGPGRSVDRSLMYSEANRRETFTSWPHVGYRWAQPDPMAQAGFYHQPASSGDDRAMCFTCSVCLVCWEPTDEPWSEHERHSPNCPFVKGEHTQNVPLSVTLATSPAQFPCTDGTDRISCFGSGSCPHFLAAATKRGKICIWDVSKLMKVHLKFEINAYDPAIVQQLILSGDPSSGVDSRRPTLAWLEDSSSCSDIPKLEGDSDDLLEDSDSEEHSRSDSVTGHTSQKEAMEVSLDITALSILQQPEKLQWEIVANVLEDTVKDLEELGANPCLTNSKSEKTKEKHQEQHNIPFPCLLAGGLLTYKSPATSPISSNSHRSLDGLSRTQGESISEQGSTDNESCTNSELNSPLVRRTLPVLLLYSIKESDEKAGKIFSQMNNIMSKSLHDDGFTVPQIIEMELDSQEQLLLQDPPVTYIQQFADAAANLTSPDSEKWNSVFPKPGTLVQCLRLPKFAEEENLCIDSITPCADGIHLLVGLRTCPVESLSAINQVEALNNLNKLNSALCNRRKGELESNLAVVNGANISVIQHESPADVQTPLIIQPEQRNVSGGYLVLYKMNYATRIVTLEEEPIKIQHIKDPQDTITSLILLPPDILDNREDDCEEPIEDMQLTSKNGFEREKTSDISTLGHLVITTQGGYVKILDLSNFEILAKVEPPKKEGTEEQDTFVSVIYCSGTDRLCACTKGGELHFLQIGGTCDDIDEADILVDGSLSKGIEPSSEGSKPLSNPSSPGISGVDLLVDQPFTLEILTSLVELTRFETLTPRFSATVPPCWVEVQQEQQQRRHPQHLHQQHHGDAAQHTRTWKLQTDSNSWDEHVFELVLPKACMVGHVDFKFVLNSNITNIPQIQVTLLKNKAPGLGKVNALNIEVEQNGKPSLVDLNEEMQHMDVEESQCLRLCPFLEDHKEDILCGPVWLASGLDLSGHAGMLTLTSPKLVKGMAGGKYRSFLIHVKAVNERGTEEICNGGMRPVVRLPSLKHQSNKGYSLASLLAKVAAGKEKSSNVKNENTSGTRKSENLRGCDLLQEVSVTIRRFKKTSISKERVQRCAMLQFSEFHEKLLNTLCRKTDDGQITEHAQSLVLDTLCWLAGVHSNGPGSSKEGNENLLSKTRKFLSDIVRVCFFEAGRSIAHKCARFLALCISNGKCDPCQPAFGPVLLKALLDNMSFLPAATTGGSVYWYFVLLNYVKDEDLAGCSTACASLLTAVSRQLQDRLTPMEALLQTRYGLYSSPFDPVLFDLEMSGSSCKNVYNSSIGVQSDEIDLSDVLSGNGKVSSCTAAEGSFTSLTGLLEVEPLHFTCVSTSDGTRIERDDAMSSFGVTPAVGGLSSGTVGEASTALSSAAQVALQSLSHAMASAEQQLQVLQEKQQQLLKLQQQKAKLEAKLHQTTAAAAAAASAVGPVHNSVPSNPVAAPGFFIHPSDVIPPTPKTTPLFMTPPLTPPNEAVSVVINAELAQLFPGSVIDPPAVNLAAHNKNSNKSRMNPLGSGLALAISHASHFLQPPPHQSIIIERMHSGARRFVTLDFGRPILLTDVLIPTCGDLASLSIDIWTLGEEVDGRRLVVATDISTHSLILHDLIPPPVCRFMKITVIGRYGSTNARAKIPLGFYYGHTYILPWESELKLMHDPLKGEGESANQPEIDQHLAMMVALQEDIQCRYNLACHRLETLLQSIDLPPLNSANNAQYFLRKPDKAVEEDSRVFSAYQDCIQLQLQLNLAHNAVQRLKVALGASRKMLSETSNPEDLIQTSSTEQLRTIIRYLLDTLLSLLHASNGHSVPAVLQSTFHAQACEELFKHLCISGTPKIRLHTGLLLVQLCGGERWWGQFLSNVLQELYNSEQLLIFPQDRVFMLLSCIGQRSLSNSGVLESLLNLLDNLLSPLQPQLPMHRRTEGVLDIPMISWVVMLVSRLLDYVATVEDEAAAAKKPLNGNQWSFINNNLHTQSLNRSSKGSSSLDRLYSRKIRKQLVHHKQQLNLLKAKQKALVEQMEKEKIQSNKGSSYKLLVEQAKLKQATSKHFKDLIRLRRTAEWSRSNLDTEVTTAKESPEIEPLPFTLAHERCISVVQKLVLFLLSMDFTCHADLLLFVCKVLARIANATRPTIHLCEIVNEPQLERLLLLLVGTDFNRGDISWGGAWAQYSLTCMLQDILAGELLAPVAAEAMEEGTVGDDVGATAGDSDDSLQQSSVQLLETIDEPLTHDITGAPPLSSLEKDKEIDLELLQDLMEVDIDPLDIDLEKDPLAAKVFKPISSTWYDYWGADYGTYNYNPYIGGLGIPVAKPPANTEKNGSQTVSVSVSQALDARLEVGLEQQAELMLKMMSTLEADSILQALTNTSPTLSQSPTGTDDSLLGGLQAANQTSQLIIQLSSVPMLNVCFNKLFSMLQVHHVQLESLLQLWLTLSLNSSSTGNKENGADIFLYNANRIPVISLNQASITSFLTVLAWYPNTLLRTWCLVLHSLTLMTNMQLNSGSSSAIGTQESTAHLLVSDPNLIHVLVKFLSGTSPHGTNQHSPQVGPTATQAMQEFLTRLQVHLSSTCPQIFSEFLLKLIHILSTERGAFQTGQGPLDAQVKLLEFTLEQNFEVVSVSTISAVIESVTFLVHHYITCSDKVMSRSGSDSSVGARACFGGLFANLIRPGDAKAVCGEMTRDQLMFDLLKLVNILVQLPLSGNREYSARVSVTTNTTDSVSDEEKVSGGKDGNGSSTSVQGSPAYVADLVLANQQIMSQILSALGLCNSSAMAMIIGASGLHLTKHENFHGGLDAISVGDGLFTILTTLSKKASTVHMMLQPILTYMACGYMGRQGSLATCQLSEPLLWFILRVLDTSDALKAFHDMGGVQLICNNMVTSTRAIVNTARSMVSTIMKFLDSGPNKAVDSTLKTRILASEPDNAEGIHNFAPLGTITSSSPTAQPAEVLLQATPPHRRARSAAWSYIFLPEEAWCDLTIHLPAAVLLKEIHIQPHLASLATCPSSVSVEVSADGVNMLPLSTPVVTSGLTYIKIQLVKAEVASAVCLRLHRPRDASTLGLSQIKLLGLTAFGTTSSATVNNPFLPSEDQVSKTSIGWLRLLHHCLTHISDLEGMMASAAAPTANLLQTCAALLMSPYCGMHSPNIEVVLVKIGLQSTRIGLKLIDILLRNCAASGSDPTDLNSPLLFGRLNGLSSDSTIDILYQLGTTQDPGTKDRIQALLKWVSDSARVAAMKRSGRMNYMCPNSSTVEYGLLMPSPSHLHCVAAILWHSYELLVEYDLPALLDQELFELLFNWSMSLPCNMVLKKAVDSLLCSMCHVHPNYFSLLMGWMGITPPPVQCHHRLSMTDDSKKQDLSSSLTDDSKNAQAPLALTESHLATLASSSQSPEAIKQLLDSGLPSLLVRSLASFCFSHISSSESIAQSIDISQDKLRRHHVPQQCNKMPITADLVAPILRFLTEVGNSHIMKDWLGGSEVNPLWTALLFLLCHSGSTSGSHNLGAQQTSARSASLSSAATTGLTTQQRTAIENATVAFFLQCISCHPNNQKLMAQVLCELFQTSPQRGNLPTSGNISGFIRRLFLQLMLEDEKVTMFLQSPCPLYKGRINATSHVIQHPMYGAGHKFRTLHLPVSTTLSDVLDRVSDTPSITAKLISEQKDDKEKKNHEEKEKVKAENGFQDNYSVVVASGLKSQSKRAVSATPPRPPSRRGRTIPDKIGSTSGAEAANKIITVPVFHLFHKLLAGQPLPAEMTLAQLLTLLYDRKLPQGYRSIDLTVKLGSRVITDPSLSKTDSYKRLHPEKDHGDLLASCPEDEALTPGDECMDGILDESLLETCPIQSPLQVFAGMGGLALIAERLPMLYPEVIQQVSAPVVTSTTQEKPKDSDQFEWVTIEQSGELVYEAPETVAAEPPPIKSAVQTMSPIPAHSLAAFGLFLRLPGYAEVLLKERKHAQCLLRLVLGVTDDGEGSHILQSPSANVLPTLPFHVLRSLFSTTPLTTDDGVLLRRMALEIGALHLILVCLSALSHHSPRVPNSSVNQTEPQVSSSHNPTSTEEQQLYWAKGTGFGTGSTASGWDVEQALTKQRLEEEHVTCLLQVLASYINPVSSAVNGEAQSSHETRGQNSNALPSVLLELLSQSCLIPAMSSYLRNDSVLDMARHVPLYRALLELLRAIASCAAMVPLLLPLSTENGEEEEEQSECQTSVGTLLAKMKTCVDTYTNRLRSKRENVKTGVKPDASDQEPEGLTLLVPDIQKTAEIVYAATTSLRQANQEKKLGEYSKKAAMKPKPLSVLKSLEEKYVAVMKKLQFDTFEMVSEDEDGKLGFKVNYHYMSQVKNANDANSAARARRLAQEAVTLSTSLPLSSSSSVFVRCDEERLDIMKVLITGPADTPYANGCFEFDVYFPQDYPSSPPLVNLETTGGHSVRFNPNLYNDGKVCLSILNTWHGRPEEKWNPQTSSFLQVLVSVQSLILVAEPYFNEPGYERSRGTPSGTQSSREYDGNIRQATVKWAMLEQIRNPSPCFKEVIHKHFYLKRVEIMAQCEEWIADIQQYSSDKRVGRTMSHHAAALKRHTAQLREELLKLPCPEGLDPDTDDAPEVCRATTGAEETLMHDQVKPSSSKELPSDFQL

B1: TRAF1 (protein, UniProt Q13077 1-416)
chain: MASSSGSSPRPAPDENEFPFGCPPTVCQDPKEPRALCCAGCLSENPRNGEDQICPKCRGEDLQSISPGSRLRTQEKAHPEVAEAGIGCPFAGVGCSFKGSPQSVQEHEVTSQTSHLNLLLGFMKQWKARLGCGLESGPMALEQNLSDLQLQAAVEVAGDLEVDCYRAPCSESQEELALQHFMKEKLLAELEGKLRVFENIVAVLNKEVEASHLALATSIHQSQLDRERILSLEQRVVELQQTLAQKDQALGKLEQSLRLMEEASFDGTFLWKITNVTRRCHESACGRTVSLFSPAFYTAKYGYKLCLRLYLNGDGTGKRTHLSLFIVIMRGEYDALLPWPFRNKVTFMLLDQNNREHAIDAFRPDLSSASFQRPQSETNVASGCPLFFPLSKLQSPKHAYVKDDTMFLKCIVETST
B2: TAB1 (protein, UniProt Q15750 1-504)
chain: MAAQRRSLLQSEQQPSWTDDLPLCHLSGVGSASNRSYSADGKGTESHPPEDSWLKFRSENNCFLYGVFNGYDGNRVTNFVAQRLSAELLLGQLNAEHAEADVRRVLLQAFDVVERSFLESIDDALAEKASLQSQLPEGVPQHQLPPQYQKILERLKTLEREISGGAMAVVAVLLNNKLYVANVGTNRALLCKSTVDGLQVTQLNVDHTTENEDELFRLSQLGLDAGKIKQVGIICGQESTRRIGDYKVKYGYTDIDLLSAAKSKPIIAEPEIHGAQPLDGVTGFLVLMSEGLYKALEAAHGPGQANQEIAAMIDTEFAKQTSLDAVAQAVVDRVKRIHSDTFASGGERARFCPRHEDMTLLVRNFGYPLGEMSQPTPSPAPAAGGRVYPVSVPYSSAQSTSKTSVTLSLVMPSQGQMVNGAHSASTLDEATPTLTNQSPTLTLQSTNTHTQSSSSSSDGGLFRSRPAHSLPPGEDGRVEPYVDFAEFYRLWSVDHGEQSVVTAP
B3: TAB3 (protein, UniProt Q8N5C8 1-712)
chain: MAQSSPQLDIQVLHDLRQRFPEIPEGVVSQCMLQNNNNLEACCRALSQESSKYLYMEYHSPDDNRMNRNRLLHINLGIHSPSSYHPGDGAQLNGGRTLVHSSSDGHIDPQHAAGKQLICLVQEPHSAPAVVAATPNYNPFFMNEQNRSAATPPSQPPQQPSSMQTGMNPSAMQGPSPPPPPPSYMHIPRYSTNPITVTVSQNLPSGQTVPRALQILPQIPSNLYGSPGSIYIRQTSQSSSGRQTPQSTPWQSSPQGPVPHYSQRPLPVYPHQQNYQPSQYSPKQQQIPQSAYHSPPPSQCPSPFSSPQHQVQPSQLGHIFMPPSPSTTPPHPYQQGPPSYQKQGSHSVAYLPYTASSLSKGSMKKIEITVEPSQRPGTAINRSPSPISNQPSPRNQHSLYTATTPPSSSPSRGISSQPKPPFSVNPVYITYTQPTGPSCTPSPSPRVIPNPTTVFKITVGRATTENLLNLVDQEERSAAPEPIQPISVIPGSGGEKGSHKYQRSSSSGSDDYAYTQALLLHQRARMERLAKQLKLEKEELERLKSEVNGMEHDLMQRRLRRVSCTTAIPTPEEMTRLRSMNRQLQINVDCTLKEVDLLQSRGNFDPKAMNNFYDNIEPGPVVPPKPSKKDSSDPCTIERKARRISVTSKVQADIHDTQAAAADEHRTGSTQSPRTQPRDEDYEGAPWNCDSCTFLNHPALNRCEQCEMPRYT

Key:
FLAG-LATS1^WT (human) = FLAG-LATS1^WT (human) (UniProt O95835); assay: affinity purification with mass spectrometry; A375 cells transfected with FLAG-LATS1 alone, with GFP-SMAC or with GFP-SMAC and RASSF1A, serum-deprived; FLAG-LATS1 as bait; on-bead trypsin digest, LFQ
GFP-SMAC (human) [1] = biological target: GFP-SMAC (human) (UniProt Q9NR28); assay: affinity purification with mass spectrometry; as a12, the sample with FLAG-LATS1^KD co-expressed
GFP-SMAC (human) [2] = biological target: GFP-SMAC (human) (UniProt Q9NR28); assay: affinity purification with mass spectrometry; HEK293 cells (HeLa by the legend of Fig. 4) transfected with GFP-SMAC alone or with FLAG-LATS1^WT or FLAG-LATS1^KD, serum deprived; GFP-SMAC immunoprecipitated; on-bead trypsin digest, LFQ

| Molecule | binding (FLAG-LATS1^WT (human)) | binding (GFP-SMAC (human) [1]) | binding (GFP-SMAC (human) [2]) |
| --- | --- | --- | --- |
| XIAP (from UniProt P98170 1-497) | binds | – | – |
| HAX1 (from UniProt O00165 1-279) | binds | – | – |
| YAP (from UniProt P46937 1-504) | – | no binding (only with FLAG-LATS1^KD co-expressed) | binds |
| BIRC6 (from UniProt Q9NR09 1-4857) | – | no binding (only with FLAG-LATS1^KD co-expressed) | binds |
| B1 | binds | – | – |
| B2 | binds | – | – |
| B3 | binds | – | – |

Results are given in words; binding and its absence hold for the method and conditions named. Binding seen in cells or lysates may run through a third protein. These calls come from enrichment with a bait or labelling near it, and not all partners need be listed. For part of these data: No binding means not detected with the bait.
